Experimental data as given in patent publication US20070129380A1.
Some results were stated once for a whole list of compounds, not compound by compound.

What was measured:
Sphaerotheca fuliginea = experiment: Activity against mildew on cucumber leaves caused by Sphaerotheca fuliginea, protective application; format: in vivo; conditions: 250 ppm active compound, sprayed to runoff, cucumber seedlings, inoculated 20 hours after drying, assessed after 7 days; untreated plants 100% infected
Altemaria solani = experiment: Activity against early blight of tomatoes caused by Altemaria solani; format: in vivo; conditions: 250 ppm active compound, sprayed to runoff, tomato plants, infected next day, assessed after 5 days; untreated plants 80% infected

Compound | extent of the mildew development determined visually in % infection of the cotyledon area (Sphaerotheca fuliginea) | infection determined visually in % (Altemaria solani) [%]
C[C@H](Nc1nc(C(N)=S)nc(Cl)c1-c1c(F)cc(F)cc1F)C(F)(F)F [Compound I-2, (S)-4-chloro-6-(2,2,2-trifluoro-1-methylethylamino)-5-(2,4,6-trifluorophenyl)pyrimidine-2-thiocarbamide] | less than 10% | –
CC(C)Nc1nc(C(N)=S)nc(Cl)c1-c1c(F)cccc1Cl [Compound I-3] | less than 10% | –
CC(C)Nc1nc(C(N)=S)nc(Cl)c1-c1c(F)cc(F)cc1F [Compound I-4] | less than 10% | –
CCC(C)Nc1nc(C(N)=S)nc(Cl)c1-c1c(F)cccc1Cl (centres unmarked) [Compound I-8, 4-sec-butylamino-6-chloro-5-(2-chloro-6-fluorophenyl)pyrimidine-2-thiocarbamide] | less than 10% | –
CCN(CC)c1nc(C(N)=S)nc(Cl)c1-c1c(F)cc(F)cc1F [Compound I-19] | – | < 5
